Experimental findings from paper PMC8195999 are described below.

Protein sequences, listed by entry. Tags and fused reporters are not part of them.
UniProt O54917: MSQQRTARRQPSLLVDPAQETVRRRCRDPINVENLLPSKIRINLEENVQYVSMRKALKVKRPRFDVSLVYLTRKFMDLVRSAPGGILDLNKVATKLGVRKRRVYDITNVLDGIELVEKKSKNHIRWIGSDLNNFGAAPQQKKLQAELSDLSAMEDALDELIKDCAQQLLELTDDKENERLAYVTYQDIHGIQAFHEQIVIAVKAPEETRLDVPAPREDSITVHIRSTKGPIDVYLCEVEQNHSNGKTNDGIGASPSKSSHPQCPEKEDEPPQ

No constants are given. Whether binding was seen depends on the method and setting. Binding seen in cells or lysates may run through a third protein. Here binding means that the protein was enriched with, or labelled near, the bait; the list need not be complete. For some of these results: No binding means not detected with the bait.

The target in one assay is 3×HA-E2F6 (UniProt O54917). Nature of the assay: affinity purification with mass spectrometry; anti-HA microbeads (mMACS, Miltenyi Biotec) on 1 mg nuclear extract of E14TG2a ESCs expressing 3×HA-E2F6 against control E14TG2a cells; nanoLC-MS/MS, spectral counts; enriched: fold change >2 and adjusted p-value < 0.05; n = 5.
The next assay has as its target 3×HA-E2F6, O54917. The assay is described as above. To be noted: remark: other sources report otherwise.

B1: PCGF6 (protein, UniProt Q99NA9 1-353)
chain: MDEAETDATENKRASEAKRASAMPPPPPPPPPISPPALIPAPAAGEEGPASLGQAGAAGCSRSRPPALEPERSLGRLRGRFEDYDEELEEEEEMEEEEEEEEEMSHFSLRLESGRADSEDEEERLINLVELTPYILCSICKGYLIDATTITECLHTFCKSCIVRHFYYSNRCPKCNIVVHQTQPLYNIRLDRQLQDIVYKLVINLEEREKKQMHDFYKERGLEVPKPAAPQPVPSSKGKTKKVLESVFRIPPELDMSLLLEFIGANEDTGHFKPLEKKFVRVSGEATIGHVEKFLRRKMGLDPACQVDIICGDHLLERYQTLREIRRAIGDTAMQDGLLVLHYGLVVSPLKIT
Turning to B1, in the assay with 3×HA-E2F6, the binding result is “binds”.

B2: UHRF1 (protein, UniProt Q8VDF2 1-782)
chain: MWIQVRTMDGKETHTVNSLSRLTKVQELRKKIEEVFHVEPQLQRLFYRGKQMEDGHTLFDYDVRLNDTIQLLVRQSLALPLSTKERDSELSDSDSGYGVGHSESDKSSTHGEGAAEADDKTVWEDTDLGLYKVNEYVDVRDNIFGAWFEAQVVQVQKRALSEDEPCSSSAVKTSEDDIMYHVKYDDYPEHGVDIVKAKNVRARARTVIPWENLEVGQVVMANYNVDYPRKRGFWYDVEICRKRQTRTARELYGNIRLLNDSQLNNCRIMFVDEVLMIELPKERRPLIASPSQPPPALRNTGKSGPSCRFCKDDENKPCRKCACHVCGGREAPEKQLLCDECDMAFHLYCLKPPLTSVPPEPEWYCPSCRTDSSEVVQAGEKLKESKKKAKMASATSSSRRDWGKGMACVGRTTECTIVPANHFGPIPGVPVGTMWRFRVQVSESGVHRPHVAGIHGRSNDGAYSLVLAGGYEDDVDNGNYFTYTGSGGRDLSGNKRTAGQSSDQKLTNNNRALALNCHSPINEKGAEAEDWRQGKPVRVVRNMKGGKHSKYAPAEGNRYDGIYKVVKYWPERGKSGFLVWRYLLRRDDTEPEPWTREGKDRTRQLGLTMQYPEGYLEALANKEKSRKRPAKALEQGPSSSKTGKSKQKSTGPTLSSPRASKKSKLEPYTLSEQQANLIKEDKGNAKLWDDVLTSLQDGPYQIFLSKVKEAFQCICCQELVFRPVTTVCQHNVCKDCLDRSFRAQVFSCPACRFELDHSSPTRVNQPLQTILNQLFPGYGSGR
With B2, in the assay with 3×HA-E2F6, the binding entry is listed as “no binding”.

B3: DP1 (protein, UniProt Q08639 1-410)
chain: MAKDASLIEANGELKVFIDQNLSPGKGVVSLVAVHPSTVNTLGKQLLPKTFGQSNVNITQQVVIGTPQRPAASNTIVVGSPHTPNTHFVSQNQTSDSSPWSAGKRNRKGEKNGKGLRHFSMKVCEKVQRKGTTSYNEVADELVAEFSAADNHILPNESAYDQKNIRRRVYDALNVLMAMNIISKEKKEIKWIGLPTNSAQECQNLEVERQRRLERIKQKQSQLQELILQQIAFKNLVQRNRQAEQQARRPPPPNSVIHLPFIIVNTSRKTVIDCSISNDKFEYLFNFDNTFEIHDDIEVLKRMGMACGLESGNCSAEDLKVARSLVPKALEPYVTEMAQGSIGGVFVTTTGSTSNGTRLSASDLSNGADGMLATSSNGSQYSGSRVETPVSYVGEDDDDDDDFNENDEED
Take B3: the binding entry with 3×HA-E2F6 is reported as “binds”.

B4: RING1B, Q9CQJ4 1-336 (protein)
chain: MSQAVQTNGTQPLSKTWELSLYELQRTPQEAITDGLEIVVSPRSLHSELMCPICLDMLKNTMTTKECLHRFCADCIITALRSGNKECPTCRKKLVSKRSLRPDPNFDALISKIYPSRDEYEAHQERVLARINKHNNQQALSHSIEEGLKIQAMNRLQRGKKQQIENGSGAEDNGDSSHCSNASTHSNQEAGPSNKRTKTSDDSGLELDNNNAAVAIDPVMDGASEIELVFRPHPTLMEKDDSAQTRYIKTSGNATVDHLSKYLAVRLALEELRSKGESNQMNLDTASEKQYTIYIATASGQFTVLNGSFSLELVSEKYWKVNKPMELYYAPTKEHK
As to B4, the binding result in the assay with 3×HA-E2F6, O54917 is reported as “binds”.
